Assay [1] deals with T1, GST-tagged recombinant full-length VRK3 (vaccinia-related kinase 3), wild type (human) (UniProt Q8IV63).
T1 sequence: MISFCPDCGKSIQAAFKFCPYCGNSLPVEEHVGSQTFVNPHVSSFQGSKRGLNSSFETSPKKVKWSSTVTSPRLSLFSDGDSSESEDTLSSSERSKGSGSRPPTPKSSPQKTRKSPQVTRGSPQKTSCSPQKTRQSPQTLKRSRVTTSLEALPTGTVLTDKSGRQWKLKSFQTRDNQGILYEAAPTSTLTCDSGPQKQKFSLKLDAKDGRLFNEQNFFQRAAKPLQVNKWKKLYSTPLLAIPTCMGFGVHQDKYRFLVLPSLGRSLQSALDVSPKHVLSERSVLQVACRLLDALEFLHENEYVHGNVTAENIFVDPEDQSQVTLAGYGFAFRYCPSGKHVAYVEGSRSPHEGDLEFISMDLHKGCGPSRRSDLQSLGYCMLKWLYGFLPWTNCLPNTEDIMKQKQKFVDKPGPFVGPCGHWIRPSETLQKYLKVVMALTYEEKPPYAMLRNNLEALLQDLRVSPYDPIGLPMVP
The experiment in a line: pull-down; GST or GST-VRK3 incubated overnight with SH-SY5Y cell lysates in Triton lysis buffer with 1 mM DTT and 10% glycerol, then glutathione-sepharose 4B beads at 4 °C for 1 h; blot; only the target purified.

Chains of the proteins cited; added tags and fusions are not shown.
UniProt P51452: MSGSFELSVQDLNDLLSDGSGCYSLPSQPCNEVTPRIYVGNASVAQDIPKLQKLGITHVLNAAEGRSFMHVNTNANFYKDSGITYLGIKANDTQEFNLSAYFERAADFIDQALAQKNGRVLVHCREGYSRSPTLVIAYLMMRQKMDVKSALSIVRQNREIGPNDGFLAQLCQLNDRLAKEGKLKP
UniProt Q15078: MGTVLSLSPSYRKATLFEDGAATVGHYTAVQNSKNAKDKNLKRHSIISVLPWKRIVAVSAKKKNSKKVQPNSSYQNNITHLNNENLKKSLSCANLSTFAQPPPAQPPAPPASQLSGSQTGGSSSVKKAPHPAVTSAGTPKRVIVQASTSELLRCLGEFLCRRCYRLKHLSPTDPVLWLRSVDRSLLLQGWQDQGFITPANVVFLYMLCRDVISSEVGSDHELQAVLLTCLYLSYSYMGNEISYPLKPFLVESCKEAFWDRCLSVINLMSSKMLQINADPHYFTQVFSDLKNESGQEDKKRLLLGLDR
UniProt P28482: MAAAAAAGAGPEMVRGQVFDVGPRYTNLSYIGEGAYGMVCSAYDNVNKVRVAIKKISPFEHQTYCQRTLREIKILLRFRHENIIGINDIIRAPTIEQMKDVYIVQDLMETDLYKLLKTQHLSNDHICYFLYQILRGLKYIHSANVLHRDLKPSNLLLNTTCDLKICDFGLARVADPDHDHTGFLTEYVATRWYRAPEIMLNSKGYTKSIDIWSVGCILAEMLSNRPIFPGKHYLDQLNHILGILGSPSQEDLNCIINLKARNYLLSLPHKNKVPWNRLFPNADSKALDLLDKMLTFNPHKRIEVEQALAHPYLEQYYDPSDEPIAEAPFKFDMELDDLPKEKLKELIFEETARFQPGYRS

The target of a further assay is T2, flag-tagged VRK3 (human) (UniProt Q8IV63).
T2 sequence: T1 sequence
The experiment in a line: co-IP; lysates of SH-SY5Y cells overexpressing flag-tagged VRK3, Triton lysis buffer; antibodies overnight, protein G beads at 4 °C for 1 h; the precipitating antibody is not given.

The target of a further assay is T3, GST-VRK3^S108E (human) (UniProt Q8IV63).
T3 sequence: T1 sequence with S108E
Description: pull-down; GST-VRK3 (wild type, S108A, S108E) incubated overnight with recombinant VHR or recombinant phospho-ERK2 in Triton lysis buffer with 1 mM DTT and 10% glycerol, then glutathione-sepharose 4B beads at 4 °C for 1 h; both purified.

Positions count from the first letter of the chain named. These are yes or no findings as the source states them, for the method shown. For some assays here: In cells and extracts the contact can be indirect. Some binding calls cover weakened binding; strength is not graded here. Where a sequence is shown, tags or fusion partners need not be part of it.

Consider “cyclin-dependent kinase 5 (CDK5), endogenous (from UniProt Q00535 1-292)”, for which the binding result (in assay [1]; with flag-tagged VRK3 (human)) was “binds” each time.
On to “vaccinia H1-related (VHR) phosphatase, endogenous (from UniProt P51452 1-185)”, for which the binding entry with flag-tagged VRK3 (human) is listed as “binds”.
On to “p35, activator of CDK5 (from UniProt Q15078 1-307)”, for which the binding result in assay [1] is “binds”.
“purified recombinant phospho-ERK2 protein (from UniProt P28482 1-360)”: the binding entry with GST-VRK3^S108E (human) is listed as “binds”.

The record behind these values is publication PMC4922050.
